What was measured:
[1] = Microdevice compatibility of fluorescent mother nucleus compounds (Table 5)
[2] = Degree of adsorption to well wall surface in microdevice; format: physicochemical; settings: 10 μM, 25° C. 1 hour; for fluorescence intensity of the center region: radius 1.12 μm or less; for fluorescence intensity of the center region / fluorescence intensity of the edge portion: average value±standard deviation; for fluorescence intensity of the edge portion: radius more than 1.12 μm and 2.08 μm or less

Row | Compound | donut-shaped fluorescence image due to adsorption to the microdevice [1] | ratio (edge/center) of fluorescence intensity [2] | fluorescence intensity of the center region [2] | fluorescence intensity of the edge portion [2]
1 | C[Si]1(C)C2=CC(=N)C=CC2=C(c2ccc(S(=O)(=O)O)cc2S(=O)(=O)O)c2ccc(N)cc21 [2,4-SO3H] | not observed | 0.58 | 1,880±178 AU | 1,087±106 AU
2 | C=CCN(CC=C)c1ccc2c(c1)[Si](C)(C)C1=CC(=[N+](CC=C)CC=C)C=CC1=C2c1ccc(S(=O)(=O)O)cc1S(=O)(=O)O [Tetra-allyl] | not observed | 0.62 | 483±33 AU | 300±23 AU

Source: US20250313879A1, “Fluorescent Probe for Detecting Peptide Bond Hydrolase” (The University of Tokyo, priority 2022, published 2025)
